Experimental data: patent US8894993B2, “Mitochondria-targeted antioxidants” (Natreon Inc., priority 2006, dated 2014)

Assay: Plasma coenzyme Q10 and 3,8-(OH)2-DBP levels in age groups of normal human volunteers

With `O=c1oc2cc(O)ccc2c2ccc(O)cc12` [3,8-(OH)2-DBP, 3,8-dihydroxydibenzo-α-pyrone] as the molecule, how does the Plasma level (normal human volunteers 20-40 years, n = 20) read?
Its Plasma level is 6.94 ± 0.9 µg/L.

What about the Plasma level (normal human volunteers 41-65 years, n = 9) of the same molecule?
The Plasma level was 4.25 ± 0.66 µg/L.
